Values from PubChem BioAssay AID504764 (Drosophila RNAi Screening Center, 2011).

Aim: 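Genome-wide screen for regulators of Notch-driven gene expression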 (primary screen)
Cell system: Drosophila Kc167 cells
Knock-down reagent: long dsRNA against Drosophila genes
Time to read-out: about 5 days (4 days dsRNA, then 24 h after transfection)
Challenge: transfection of constitutively active membrane-tethered Notch lacking the extracellular domain, read 24 h later
Detection: 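Light from a Notch-responsive E(spl)m3 luciferase reporter under active Notch, with control-promoter and no-Notch reporter wells to normalise; raw counts from paired wells a and b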
Reading the numbers: induced reporter light, run 1, well a and induced reporter light, run 1, well b: higher = more light from the Notch target reporter with active Notch; control promoter light, run 1, well a and control promoter light, run 1, well b: higher = more light from the viral control promoter (cell number, transfection, viability); uninduced reporter light, run 1, well a: higher = more light from the Notch target reporter without active Notch
Hit rule: 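Hit if the duplicate-averaged log2 ratio of induced to control-promoter light gives a plate-wise z beyond ±2, or induced to uninduced beyond ±1.8; weak-control or discordant-duplicate wells dropped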
Meaning of the calls: active = modifier hit (raised or lowered Notch signal); inactive = not a hit
The deposit covers about 22,000 reagents; below is an unselected part of those that have a named target and a result. In the full data, 403 (1.9%) got an active call. 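Unnormalised raw counts per well; ratio z-scores behind the hit calls and whether each hit raises or lowers signal are not deposited.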 Unmarked entries are inactive. Not stated in the record: the amount of reagent.

target | amplicon | induced reporter light, run 1, well a | induced reporter light, run 1, well b | control promoter light, run 1, well a | control promoter light, run 1, well b | uninduced reporter light, run 1, well a
CG1738 | DRSC19772 | 1.20e5 | 1.32e5 | 2.03e5 | 2.14e5 | 8192
Scamp | DRSC20286 | 70515 | 68265 | 65110 | 58245 | 9855
Rrp6 | DRSC16223 | 21575 | 25265 | 23645 | 25190 | 1700
mRpL3 (mitochondrial ribosomal protein L3) | DRSC20100 | 32125 | 29035 | 26220 | 25905 | 3110
ca (claret) | DRSC15305 | 1.84e5 | 1.98e5 | 2.54e5 | 2.75e5 | 13960
ca (claret) | DRSC15306 | 1.84e5 | 1.96e5 | 2.27e5 | 2.42e5 | 16875
ca (claret) | DRSC16314 | 1.47e5 | 1.36e5 | 2.09e5 | 2.22e5 | 15455
CG13623 | DRSC14625 | 1.24e5 | 1.11e5 | 1.08e5 | 1.23e5 | 9140
pns (pinstripe) | DRSC08598 | 91645 | 98525 | 1.54e5 | 1.21e5 | 6515
CG15373 | DRSC19663 | 54530 | 55430 | 61905 | 53835 | 8475
Spag1 (Spag1 axonemal dynein assembly factor) | DRSC15331 | 1.56e5 | 1.22e5 | 2.26e5 | 2.03e5 | 12510
CG13097 | DRSC02199 | 2.42e5 | 2.23e5 | 2.20e5 | 2.28e5 | 16060
CG33090 | DRSC01908 | 2.03e5 | 2.06e5 | 1.78e5 | 2.30e5 | 16965
Rb97D (Ribonuclear protein at 97D) | DRSC16815 | 2480 | 2270 | 5645 | 5138 | 370
Rab18 | DRSC18702 | 1.80e5 | 1.82e5 | 2.48e5 | 2.16e5 | 12300
RyR (Ryanodine receptor) | DRSC07543 | 2.38e5 | 1.63e5 | 1.99e5 | 1.95e5 | 19380
betaggt-I (beta subunit of type I geranylgeranyl transferase) | DRSC03494 | 68030 | 67320 | 83235 | 49035 | 3740
Fcp3C (Follicle cell protein 3C) | DRSC18665 | 95195 | 1.11e5 | 1.35e5 | 1.54e5 | 7575
Cyp4p2 (Cytochrome P450 4p2) | DRSC07373 | 2.15e5 | 1.94e5 | 2.32e5 | 2.64e5 | 17605
blp (black pearl) | DRSC15757 | 1.48e5 | 1.44e5 | 1.54e5 | 1.43e5 | 13140
Ets21C (Ets at 21C) | DRSC00751 | 94265 | 1.06e5 | 93020 | 51770 | 9425
CG42397 | DRSC09147 | 1.86e5 | 2.19e5 | 2.08e5 | 1.95e5 | 11585
CG14657 | DRSC12219 | 1.64e5 | 1.07e5 | 1.45e5 | 1.37e5 | 8350
CG14657 | DRSC12243 | 1.45e5 | 1.36e5 | 1.13e5 | 1.03e5 | 10860
Pld (Phospholipase D) | DRSC04854 | 1.60e5 | 1.72e5 | 1.63e5 | 1.70e5 | 13205
Cln7 | DRSC11005 | 1.12e5 | 1.02e5 | 83965 | 41860 | 11580
Prp3 (Precursor RNA processing 3) | DRSC10912 | 67570 | 73115 | 59750 | 64545 | 6060
CG12078 | DRSC08242 | 1.21e5 | 1.33e5 | 1.65e5 | 1.24e5 | 6865
CR31700 (pseudo) | DRSC03682 | 92470 | 68070 | 64255 | 96355 | 7960
CG4982 | DRSC10465 | 1.32e5 | 1.16e5 | 1.81e5 | 1.60e5 | 10365
CG10257 | DRSC05985 | 92935 | 95650 | 1.23e5 | 1.27e5 | 9245
gammaTub23C (gamma-Tubulin at 23C) | DRSC00820 | 1.27e5 | 1.54e5 | 1.84e5 | 1.93e5 | 12625
Tim17b1 | DRSC12179 | 95385 | 1.16e5 | 89005 | 60880 | 7355
ND-18 (NADH dehydrogenase (ubiquinone) 18 kDa subunit) | DRSC19441 | 98645 | 96885 | 1.17e5 | 1.20e5 | 9965
